Here are results for one molecule from paper PMC7806492.

Sequences of proteins named here, by UniProt entry; tags and fusion partners are left off. A change or cut given only in a name is not applied to a line headed by its entry.
UniProt P14780: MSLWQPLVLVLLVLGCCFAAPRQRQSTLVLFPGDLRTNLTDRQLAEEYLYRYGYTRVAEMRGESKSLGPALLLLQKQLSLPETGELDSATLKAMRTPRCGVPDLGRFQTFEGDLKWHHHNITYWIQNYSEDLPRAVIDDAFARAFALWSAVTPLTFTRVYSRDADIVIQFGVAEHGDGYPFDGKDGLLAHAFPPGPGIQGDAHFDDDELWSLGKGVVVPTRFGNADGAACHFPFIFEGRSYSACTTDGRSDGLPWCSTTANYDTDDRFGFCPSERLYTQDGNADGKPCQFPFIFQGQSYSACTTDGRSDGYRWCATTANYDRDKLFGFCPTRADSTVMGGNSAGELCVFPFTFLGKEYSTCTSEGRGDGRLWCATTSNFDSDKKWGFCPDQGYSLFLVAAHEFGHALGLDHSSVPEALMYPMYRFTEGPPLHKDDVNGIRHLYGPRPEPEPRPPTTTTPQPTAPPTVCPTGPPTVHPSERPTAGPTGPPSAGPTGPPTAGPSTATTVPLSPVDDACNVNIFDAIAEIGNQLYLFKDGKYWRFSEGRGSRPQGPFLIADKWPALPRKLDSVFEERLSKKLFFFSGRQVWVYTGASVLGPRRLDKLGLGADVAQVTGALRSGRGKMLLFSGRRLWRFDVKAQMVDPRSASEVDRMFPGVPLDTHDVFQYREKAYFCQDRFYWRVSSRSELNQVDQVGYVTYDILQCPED

These are yes or no findings as the source states them, for the method shown. In cells and extracts the contact can be indirect. Binding can be weak; no strength is given.

This assay deals with MMP9-SFB (human) (UniProt P14780). Nature of the assay: co-IP; whole cell lysates of ESCC cells transfected with MDK-SFB, MMP2-SFB or MMP9-SFB; IP lysis buffer (50 mM Tris, 150 mM NaCl, 0.5% NP-40, 5 mM EDTA); anti-FLAG M2 beads overnight; blots for endogenous SRGN and CD44.

B1: core protein of serglycin (SRGN) at ~28 kDa, endogenous in ESCC cell lysates (protein, UniProt P10124 28-158)
chain: YPTRRARYQWVRCNPDSNSANCLEEKGPMFELLPGESNKIPRLRTDLFPKTRIQDLNRIFPLSEDYSGSGFGSGSGSGSGSGSGFLTEMEQDYQLVDESDAFHDNLRSLDRNLPSDSQDLGQHGLEEDFML
On to B1, for which the binding result was “binds”.
